Laboratory results reported in the supplement of paper PMC8728848.
This is one part of the list.

Key:
Assay in all cases: glycan array binding signal (z-score within array); higher = stronger binding
Details in all cases: glycan notation: IUPAC condensed, linker removed
[1] = molecular target: Fuc(a1-2)[Gal(a1-3)]Gal(b1-4)GlcNAc(b1-2)Man(a1-3)[Fuc(a1-2)[Gal(a1-3)]Gal(b1-4)GlcNAc(b1-2)Man(a1-6)]Man(b1-4)GlcNAc(b1-4)GlcNAc
Outline: (§1)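 Negative Z-scores can be read as non-binding. The Z-score is calculated within each array and then averaged across arrays of one protein sequence at different concentrations or buffers and across linkers. Arrays, 3228 in all, were curated from the Consortium for Functional Glycomics database and kept only where the protein sequence was available.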

[2] = molecular target: Fuc(a1-2)[Gal(a1-3)]Gal(b1-4)GlcNAc(b1-2)Man(a1-3)[Fuc(a1-2)[Gal(a1-3)]Gal(b1-4)GlcNAc(b1-2)Man(a1-6)]Man(b1-4)GlcNAc(b1-4)[Fuc(a1-6)]GlcNAc
Outline: as §1

[3] = molecular target: Fuc(a1-2)[Gal(a1-3)]Gal(b1-4)GlcNAc(b1-3)GalNAc
Outline: as §1

[4] = molecular target: Fuc(a1-2)[Gal(a1-3)]Gal(b1-4)GlcNAc(b1-6)GalNAc
Outline: as §1

[5] = molecular target: Fuc(a1-2)[Gal(a1-3)]Gal(b1-4)[Fuc(a1-3)]Glc
Outline: as §1

[6] = molecular target: Fuc(a1-2)[Gal(a1-3)]Gal(b1-4)[Fuc(a1-3)]GlcNAc
Outline: as §1

[7] = molecular target: Fuc(a1-2)[Gal(a1-3)]Gal(b1-4)[Fuc(a1-3)]GlcNAc(b1-3)GalNAc
Outline: as §1

[8] = molecular target: Fuc(a1-2)[Gal(a1-4)]Gal(b1-4)GlcNAc
Outline: as §1

[9] = molecular target: Fuc(a1-2)[GalNAc(a1-3)]Gal
Outline: as §1

[10] = molecular target: Fuc(a1-2)[GalNAc(a1-3)]Gal(b1-3)GalNAc(a1-3)[Fuc(a1-2)]Gal(b1-4)GlcNAc
Outline: as §1

[11] = molecular target: Fuc(a1-2)[GalNAc(a1-3)]Gal(b1-3)GalNAc(b1-3)Gal(a1-4)Gal(b1-4)Glc
Outline: as §1

[12] = molecular target: Fuc(a1-2)[GalNAc(a1-3)]Gal(b1-3)GlcNAc
Outline: as §1

[13] = molecular target: Fuc(a1-2)[GalNAc(a1-3)]Gal(b1-3)GlcNAc(b1-2)Man(a1-3)[Fuc(a1-2)[GalNAc(a1-3)]Gal(b1-3)GlcNAc(b1-2)Man(a1-6)]Man(b1-4)GlcNAc(b1-4)GlcNAc
Outline: as §1

[14] = molecular target: Fuc(a1-2)[GalNAc(a1-3)]Gal(b1-3)GlcNAc(b1-2)Man(a1-3)[Fuc(a1-2)[GalNAc(a1-3)]Gal(b1-3)GlcNAc(b1-2)Man(a1-6)]Man(b1-4)GlcNAc(b1-4)[Fuc(a1-6)]GlcNAc
Outline: as §1

[15] = molecular target: Fuc(a1-2)[GalNAc(a1-3)]Gal(b1-3)GlcNAc(b1-3)GalNAc
Outline: as §1

[16] = molecular target: Fuc(a1-2)[GalNAc(a1-3)]Gal(b1-3)GlcNAc(b1-6)GalNAc
Outline: as §1

[17] = molecular target: Fuc(a1-2)[GalNAc(a1-3)]Gal(b1-4)Glc
Outline: as §1

[18] = molecular target: Fuc(a1-2)[GalNAc(a1-3)]Gal(b1-4)GlcNAc
Outline: as §1

[19] = molecular target: Fuc(a1-2)[GalNAc(a1-3)]Gal(b1-4)GlcNAc(b1-2)Man
Outline: as §1

[20] = molecular target: Fuc(a1-2)[GalNAc(a1-3)]Gal(b1-4)GlcNAc(b1-2)Man(a1-3)[Fuc(a1-2)[GalNAc(a1-3)]Gal(b1-4)GlcNAc(b1-2)Man(a1-6)]Man(b1-4)GlcNAc(b1-4)GlcNAc
Outline: as §1

[21] = molecular target: Fuc(a1-2)[GalNAc(a1-3)]Gal(b1-4)GlcNAc(b1-2)Man(a1-3)[Fuc(a1-2)[GalNAc(a1-3)]Gal(b1-4)GlcNAc(b1-2)Man(a1-6)]Man(b1-4)GlcNAc(b1-4)[Fuc(a1-6)]GlcNAc
Outline: as §1

[22] = molecular target: Fuc(a1-2)[GalNAc(a1-3)]Gal(b1-4)GlcNAc(b1-3)Gal(b1-4)GlcNAc
Outline: as §1

[23] = molecular target: Fuc(a1-2)[GalNAc(a1-3)]Gal(b1-4)GlcNAc(b1-3)Gal(b1-4)GlcNAc(b1-3)Gal(b1-4)GlcNAc
Outline: as §1

[24] = molecular target: Fuc(a1-2)[GalNAc(a1-3)]Gal(b1-4)GlcNAc(b1-3)GalNAc
Outline: as §1

[25] = molecular target: Fuc(a1-2)[GalNAc(a1-3)]Gal(b1-4)GlcNAc(b1-3)[Fuc(a1-2)[GalNAc(a1-3)]Gal(b1-4)GlcNAc(b1-6)]GalNAc
Outline: as §1

[26] = molecular target: Fuc(a1-2)[GalNAc(a1-3)]Gal(b1-4)GlcNAc(b1-6)GalNAc
Outline: as §1

[27] = molecular target: Fuc(a1-2)[GalNAc(a1-3)]Gal(b1-4)[Fuc(a1-3)]GlcNAc
Outline: as §1

[28] = molecular target: Fuc(a1-2)[GalNAc(a1-3)]Gal(b1-4)[Fuc(a1-3)]GlcNAc(b1-3)GalNAc
Outline: as §1

[29] = molecular target: Fuc(a1-2)[GalNAc(a1-4)]Gal(b1-4)GlcNAc
Outline: as §1

[30] = molecular target: Fuc(a1-2)[GalNAc(b1-3)]Gal
Outline: as §1

Fuc(a1-3)GlcNAc = molecular target: Fuc(a1-3)GlcNAc
Outline: as §1

[31] = molecular target: Fuc(a1-3)[Gal(b1-4)]Glc6S
Outline: as §1

[32] = molecular target: Fuc(a1-3)[Gal(b1-4)]GlcNAc
Outline: as §1

[33] = molecular target: Fuc(a1-3)[Gal(b1-4)]GlcNAc(b1-2)Man
Outline: as §1

[34] = molecular target: Fuc(a1-3)[Gal(b1-4)]GlcNAc(b1-2)Man(a1-3)[Fuc(a1-3)[Gal(b1-4)]GlcNAc(b1-2)Man(a1-6)]Man(b1-4)GlcNAc(b1-4)GlcNAc
Outline: as §1

[35] = molecular target: Fuc(a1-3)[Gal(b1-4)]GlcNAc(b1-2)Man(a1-3)[Fuc(a1-3)[Gal(b1-4)]GlcNAc(b1-2)Man(a1-6)]Man(b1-4)GlcNAc(b1-4)[Fuc(a1-6)]GlcNAc
Outline: as §1

[36] = molecular target: Fuc(a1-3)[Gal(b1-4)]GlcNAc(b1-3)Gal(b1-3)[Fuc(a1-4)]GlcNAc
Outline: as §1

B1: B3GalT2 (Rattus norvegicus) (protein)
chain: LMLQWRRRHCCFAKMSWNAKRSLFRTHLMGVLSLVFLFAMFLFFNHHDWLPGRPGFKENPVTYTFRGFRSTKTETNQSSLRNIWKEVVPQTLRPQTATNSNNTELSPQGVTGLENTLSANGSIYNEKGTGHPNSYHFKYIINEPEKCQEKSPFLILLIAAEPGQIEARRAIRQTWGNETLAPGIQITRIFLLGISIKLNGYLQHAIQEESIQYHDIIQQEYLDTYYNLTIKTLMGMNWVATYCPHTPYVMKTDSDMFVNTEYLIHKLLKPDLPPRHNYFTGYLMRGYAPNRNKDSKWYMPPDLYPSERYPVFCSGTGYVFSGDLAEKIFKVSLGIRRLHLEDVYVGICLAKLRVDPVPPPNEFVFNHWRVSYSSCKYSHLITSHQFQPSELIKYWNHLQQNKHNACVNAAKEKAGRYRHRKLH
For B1, which “glycan array binding signal (z-score)” value [1] is on record?
The value was 0.289.

And the “glycan array binding signal (z-score)” value [2]?
The value was -0.224.

What about the “glycan array binding signal (z-score)” value [3] of the same binder?
Its value is -0.545.

And the “glycan array binding signal (z-score)” value [4]?
Its value is -0.718.

And the “glycan array binding signal (z-score)” value [5]?
The value was -0.757.

And the “glycan array binding signal (z-score)” value [6]?
The value was -0.213.

What about the “glycan array binding signal (z-score)” value [7] of the same binder?
The value was 0.152.

And the “glycan array binding signal (z-score)” value [8]?
The value was 0.673.

What about the “glycan array binding signal (z-score)” value [9] of the same binder?
The value was 1.07.

And the “glycan array binding signal (z-score)” value [10]?
The value was 0.44.

What about the “glycan array binding signal (z-score)” value [11] of the same binder?
Its value is -0.694.

What about the “glycan array binding signal (z-score)” value [12] of the same binder?
Its value is -0.761.

What about the “glycan array binding signal (z-score)” value [13] of the same binder?
The value was -0.832.

What about the “glycan array binding signal (z-score)” value [14] of the same binder?
Its value is -0.636.

And the “glycan array binding signal (z-score)” value [15]?
The value was -0.636.

And the “glycan array binding signal (z-score)” value [16]?
The value was -0.861.

And the “glycan array binding signal (z-score)” value [17]?
Its value is 0.999.

What about the “glycan array binding signal (z-score)” value [18] of the same binder?
Its value is 0.117.

And the “glycan array binding signal (z-score)” value [19]?
The value was 0.311.

What about the “glycan array binding signal (z-score)” value [20] of the same binder?
Its value is -0.447.

What about the “glycan array binding signal (z-score)” value [21] of the same binder?
Its value is 0.615.

What about the “glycan array binding signal (z-score)” value [22] of the same binder?
Its value is -0.693.

And the “glycan array binding signal (z-score)” value [23]?
The value was -0.727.

What about the “glycan array binding signal (z-score)” value [24] of the same binder?
Its value is 0.152.

And the “glycan array binding signal (z-score)” value [25]?
Its value is -0.188.

And the “glycan array binding signal (z-score)” value [26]?
The value was -1.06.

What about the “glycan array binding signal (z-score)” value [27] of the same binder?
Its value is 0.349.

And the “glycan array binding signal (z-score)” value [28]?
Its value is 0.248.

And the “glycan array binding signal (z-score)” value [29]?
Its value is -0.599.

What about the “glycan array binding signal (z-score)” value [30] of the same binder?
The value was 3.23.

And the “glycan array binding signal (z-score)” value (Fuc(a1-3)GlcNAc)?
Its value is -0.098.

And the “glycan array binding signal (z-score)” value [31]?
The value was 0.511.

And the “glycan array binding signal (z-score)” value [32]?
The value was 0.408.

What about the “glycan array binding signal (z-score)” value [33] of the same binder?
The value was -0.868.

What about the “glycan array binding signal (z-score)” value [34] of the same binder?
The value was -0.684.

What about the “glycan array binding signal (z-score)” value [35] of the same binder?
Its value is -0.798.

And the “glycan array binding signal (z-score)” value [36]?
The value was 0.846.
